# Data taken from patent US8541377B2, “Optimized dengue virus entry inhibitory peptide (DN81)” (Florida Gulf Coast University, priority 2007, dated 2013).
# At least one peptide structure holds a part that was inferred or is arguable (an end, a ring closure or a residue). Residues, ends and D or L forms follow the SMILES beside them.
# Key:
# DENV-2 [1] = assay: qRT-PCR virus binding assay; format: cell-based, Dengue virus (DENV-2) in LLCMK-2 cells; settings: DENV-2 pre-incubated 45 m at 4° C., infection 45 m at 4° C.
# DENV-2 [2] = assay: Focus forming unit (FFU) reduction assay; format: cell-based; settings: virus pre-incubated with peptide 1 h at rt; LLCMK-2 cells; 1% DMSO/aqueous solution; FIG. 2 and FIG. 3
# DENV-2 [3] = assay: Pre-binding focus-forming assay with DN81 against DENV-2; format: cell-based, Dengue virus (DENV-2) in LLCMK-2 cells; settings: DN81 added to target cells 1 h at 4° C. prior to infection, rinsed with PBS
smiles,measurement,setting,value
CSCC[C@H](NC(=O)[C@H](Cc1c[nH]c2ccccc12)NC(=O)[C@@H](N)CCCNC(=N)N)C(=O)N[C@H](C(=O)N[C@@H](Cc1c[nH]c2ccccc12)C(=O)N[C@@H](CCCNC(=N)N)C(=O)N[C@@H](Cc1c[nH]cn1)C(=O)N[C@@H](Cc1c[nH]c2ccccc12)C(=O)N[C@@H](Cc1ccccc1)C(=O)N[C@@H](Cc1c[nH]cn1)C(=O)N[C@@H](CCCNC(=N)N)C(=O)N[C@@H](CC(C)C)C(=O)N[C@@H](CCCNC(=N)N)C(=O)N[C@@H](CC(C)C)C(=O)N1CCC[C@H]1C(=O)N[C@@H](Cc1ccc(O)cc1)C(=O)N[C@@H](CC(N)=O)C(=O)N1CCC[C@H]1C(=O)NCC(=O)N[C@@H](CCCCN)C(=O)N[C@@H](CC(N)=O)C(=O)N[C@@H](CCCCN)C(=O)N[C@@H](CCC(N)=O)C(=O)N[C@@H](CC(N)=O)C(=O)N[C@@H](CCC(N)=O)C(=O)N[C@@H](CCC(N)=O)C(=O)N[C@@H](Cc1c[nH]c2ccccc12)C(=O)N1CCC[C@H]1C(=O)O)C(C)C [DN81] (H-RWMVWRHWFHRLRLPYNPGKNKQNQQWP-OH),virus binding/attachment to target cells (qRT-PCR signal),DENV-2 [1],did not inhibit virus binding
same,"inhibitory activity against DENV-2 (dose response, focus-forming assay)",DENV-2 [2],showed an increase in inhibitory activity as a function of concentration
same,inhibition of DENV-2 infection when target cells are treated before infection,DENV-2 [3],no evidence of inhibition
